Paper PMC6751634
No constants are given. Whether binding was seen depends on the method and setting. In cells and extracts the contact can be indirect. Some entries that bind do so weakly or less than the wild type.

Sequences of proteins named here, by UniProt entry; tags and fusion partners are left off.
UniProt Q3TKT4: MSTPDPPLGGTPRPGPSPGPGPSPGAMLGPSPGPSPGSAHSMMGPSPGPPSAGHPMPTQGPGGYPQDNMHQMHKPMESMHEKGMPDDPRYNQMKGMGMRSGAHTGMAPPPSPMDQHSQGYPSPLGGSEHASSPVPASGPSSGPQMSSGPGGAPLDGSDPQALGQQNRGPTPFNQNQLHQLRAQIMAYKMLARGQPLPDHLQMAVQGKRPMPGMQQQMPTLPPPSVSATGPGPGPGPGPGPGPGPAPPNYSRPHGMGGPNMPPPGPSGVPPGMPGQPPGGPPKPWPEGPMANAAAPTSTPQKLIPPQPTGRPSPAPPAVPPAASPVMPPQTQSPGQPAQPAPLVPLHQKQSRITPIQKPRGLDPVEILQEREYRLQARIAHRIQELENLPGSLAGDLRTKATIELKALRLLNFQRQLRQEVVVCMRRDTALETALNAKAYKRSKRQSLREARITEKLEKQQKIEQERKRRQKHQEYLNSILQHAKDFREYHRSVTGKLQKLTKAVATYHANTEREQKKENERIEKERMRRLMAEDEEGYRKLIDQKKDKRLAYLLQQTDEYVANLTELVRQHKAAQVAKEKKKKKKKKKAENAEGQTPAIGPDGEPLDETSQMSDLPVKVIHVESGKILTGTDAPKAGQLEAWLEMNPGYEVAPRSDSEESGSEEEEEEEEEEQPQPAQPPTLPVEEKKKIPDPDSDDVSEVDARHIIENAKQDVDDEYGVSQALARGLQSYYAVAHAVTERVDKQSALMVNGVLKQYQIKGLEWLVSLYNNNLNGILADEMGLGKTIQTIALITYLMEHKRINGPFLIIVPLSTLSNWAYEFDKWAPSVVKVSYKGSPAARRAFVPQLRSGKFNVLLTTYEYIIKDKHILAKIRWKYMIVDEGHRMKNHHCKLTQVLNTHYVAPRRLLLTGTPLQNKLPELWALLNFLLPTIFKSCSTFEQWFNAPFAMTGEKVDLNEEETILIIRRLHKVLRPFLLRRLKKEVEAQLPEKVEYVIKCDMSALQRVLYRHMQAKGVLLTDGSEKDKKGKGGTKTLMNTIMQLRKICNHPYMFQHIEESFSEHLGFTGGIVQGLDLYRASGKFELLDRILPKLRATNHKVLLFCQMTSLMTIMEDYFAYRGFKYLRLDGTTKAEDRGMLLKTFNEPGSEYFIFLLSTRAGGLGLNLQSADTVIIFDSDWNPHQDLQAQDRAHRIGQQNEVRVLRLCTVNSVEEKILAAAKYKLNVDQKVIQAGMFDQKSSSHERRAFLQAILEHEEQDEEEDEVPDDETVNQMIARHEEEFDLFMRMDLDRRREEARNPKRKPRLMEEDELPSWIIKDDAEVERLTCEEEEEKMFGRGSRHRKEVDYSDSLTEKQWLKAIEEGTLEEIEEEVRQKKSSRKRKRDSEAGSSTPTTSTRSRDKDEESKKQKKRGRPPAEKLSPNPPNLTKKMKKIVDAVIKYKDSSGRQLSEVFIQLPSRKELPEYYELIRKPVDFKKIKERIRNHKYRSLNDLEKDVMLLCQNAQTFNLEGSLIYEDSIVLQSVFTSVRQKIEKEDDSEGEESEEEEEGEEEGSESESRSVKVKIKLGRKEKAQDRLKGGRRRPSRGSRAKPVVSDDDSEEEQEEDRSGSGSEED
UniProt P10085: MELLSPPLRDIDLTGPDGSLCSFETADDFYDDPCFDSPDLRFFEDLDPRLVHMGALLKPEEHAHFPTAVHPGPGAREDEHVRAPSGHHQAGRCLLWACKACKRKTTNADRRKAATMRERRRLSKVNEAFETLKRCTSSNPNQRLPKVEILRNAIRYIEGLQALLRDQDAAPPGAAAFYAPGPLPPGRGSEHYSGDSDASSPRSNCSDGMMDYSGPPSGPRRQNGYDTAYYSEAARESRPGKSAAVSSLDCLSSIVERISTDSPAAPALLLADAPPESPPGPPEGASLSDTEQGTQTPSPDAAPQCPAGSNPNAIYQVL

Key:
[1] = molecular target: Brahma related gene 1 (Brg1), endogenous (mouse (endogenous in C2C12 and primary mouse myoblasts)) (UniProt Q3TKT4); assay: co-IP; lysates of 24 h differentiated primary mouse myoblasts (C57BL/6, or Brg1-deleted and expressing WT-, SA- or SE-Brg1); IP with pan-calcineurin A antibody or Brg1 antisera, protein A magnetic beads, wash with 300 mM NaCl, 0.5% NP-40, 1 mM CaCl2; Western blot
[2] = molecular target: wild-type Brg1 (WT-Brg1) expressed in Brg1-depleted primary mouse myoblasts (UniProt Q3TKT4); assay: as above

binding [1]: binds
binding [2]: binds
Substance: MyoD (from UniProt P10085 1-318)
